This note sets out measurements from PMC6023610.

By UniProt entry, the sequences of proteins in these tests, tags left out. Where a name states a change or a piece, a line headed by the entry shows the natural chain unless it says otherwise.
UniProt Q5CZV3: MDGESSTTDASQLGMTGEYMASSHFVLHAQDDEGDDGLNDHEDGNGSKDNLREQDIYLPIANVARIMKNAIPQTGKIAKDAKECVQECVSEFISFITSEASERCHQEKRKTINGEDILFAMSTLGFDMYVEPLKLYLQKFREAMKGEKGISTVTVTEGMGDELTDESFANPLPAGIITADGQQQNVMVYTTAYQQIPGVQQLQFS
UniProt A0A8M1PCG7: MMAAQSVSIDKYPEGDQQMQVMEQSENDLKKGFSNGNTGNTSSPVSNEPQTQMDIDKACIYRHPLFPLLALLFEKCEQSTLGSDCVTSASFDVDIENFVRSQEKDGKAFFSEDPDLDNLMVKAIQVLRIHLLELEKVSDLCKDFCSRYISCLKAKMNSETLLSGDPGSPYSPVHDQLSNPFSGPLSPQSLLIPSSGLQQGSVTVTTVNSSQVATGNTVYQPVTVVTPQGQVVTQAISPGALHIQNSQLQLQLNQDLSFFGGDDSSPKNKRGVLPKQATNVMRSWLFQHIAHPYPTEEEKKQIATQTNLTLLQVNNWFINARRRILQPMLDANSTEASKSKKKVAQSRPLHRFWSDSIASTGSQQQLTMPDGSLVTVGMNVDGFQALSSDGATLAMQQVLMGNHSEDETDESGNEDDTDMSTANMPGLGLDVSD

For assay [1], the target named is Flag-NF-YB (zebrafish) (UniProt Q5CZV3). The assay is described as follows: co-IP; pairwise combinations co-transfected in HEK293 (HEK-293T) cells; lysis and five washes in Co-IP Buffer (50 mM Tris-HCl pH 7.5, 150 mM NaCl, 0.2 mM EDTA, 1 mM DTT, 0.5% Triton X100); 8 ug antibody overnight at 4°C, Protein A/G Agarose beads; Western blot.
Assay [2] concerns the target Flag-NF-YA (zebrafish). The assay is described as above.

These are yes or no findings as the source states them, for the method shown. In cells and extracts the contact can be indirect. Binding can be weak; no strength is given. Where a sequence is shown, tags or fusion partners need not be part of it.

6xMyc-Prep1.1 (from UniProt A0A8M1PCG7): the binding entry in assay [1] and in assay [2] was “binds” each time.

B1: HA-Pbx4 (protein, UniProt Q9PW77 1-343)
chain: MDDQTRMLASMGGLGGLSQADVGDPDSVRKQQSLGQPQQDIGDILQQIMAITDESLDEAQARKHALNCHRLKPALFSVLCEIKEKTVLSIRGVQEEDPPDPQIMRLDNMLLAEGVSGPEKGGGSAAAAAAAAAAGGSPNDGSIEHSDYRAKLAQIRQIYHSELEKYEQACSEFTNHVMNLLREQSRTRPISPKEIERMVAIIHRKFSSIQMQLKQSTCEAVMILRSRFLDARRKRRNFNKQATEVLNEYFYSHLSNPYPSEEAKEELAKKCGITVSQVSNWFGNKRIRYKKNIGKFQEEANLYAVKTAVDAANVSAQASQANSPATPNSGGYPAPCYTPDGRL
For the molecule B1, the binding entry in assay [1] and in assay [2] was “binds” in each case.
